The values below come from PubChem BioAssay AID2685 (National Center for Advancing Translational Sciences (NCATS), 2010).

The test in a line: qHTS Assay for Lipid Storage Modulators in Drosophila S3 Cells.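 For cell number change: cells counted by Cell Tracker Red CMTPX staining in the red channel.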 As to conditions: BODIPY lipid droplet fluorescence, 18-24 h; for cell number change: measured here: cell count max response, cells fed with added oleic acid. In outline:
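Drosophila S3 cells loaded with oleic acid (400 uM, as added) and compounds at several concentrations; lipid droplets imaged by 488-nm laser-scanning cytometry, 500–530 nm intensity and object ratio to cell channel. Percent activity normalized to 20 uM Triacsin C.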
Background: Quantitative high-throughput screening tests each substance at several concentrations.

The mark [1] stands for this setting: measured here: cell number channel AC50, cells fed with added oleic acid.
Setting [2] is: measured here: lipid fluorescence (Fed channel) AC50, cells fed with added oleic acid.

The list shows a part of the results. Further columns of the screen follow, without active or inactive calls. Compounds called inactive in the main read-out are mostly missing here. Potencies come from curve fits of mixed quality, noted in brackets.

On to `CCCOn1c(-n2nc(C)cc2C)nc2ccccc2c1=O`, for which the cell number change stood at 31.5%. Also, under setting [1], the AC50 (commonly the concentration at which the activity in the assay is half-maximal) was 1.84 µM [rising, full curve]. Also, the AC50 under setting [2] is 2.06 µM [rising, partial curve]. On to `Cn1cnnc1SCC(=O)Nc1ccc(Oc2ccccc2)cc1`, for which the cell number change stood at 14.4%. Regarding `CCCc1ccc(C(=O)NNC(=O)c2ccc(Cl)cc2)cc1`, the cell number change was found to be 4.01%. Further, the AC50 under setting [2] is 0.461 µM [falling, full curve]. For the compound `COC(=O)COc1ccccc1/C=C1/NC(=O)NC1=O`, the cell number change is -1.26%. Moreover, the AC50 under setting [2] is 0.651 µM [falling, full curve, poor fit].

On to `C/C(=N/NC(=O)c1ccc(Br)o1)c1cccc(NC(=O)c2ccc(F)cc2)c1`, for which the cell number change is -9.38%.

On to `CC1CCN(CC(=O)Nc2cccc(C(=O)Nc3cccc(C(F)(F)F)c3)c2)CC1`, for which the cell number change was -35.2%. In addition, the AC50 under setting [1] was 0.231 µM [falling, full curve]. The AC50 under setting [2] is 1.64 µM [falling, single point]. For `Cc1csc(SCC(=O)NC(=O)c2ccccc2)n1`, the cell number change was -13.3%. As to `CC1CCCN(C(=O)CCNC(=O)Cn2cnc3ccccc3c2=O)C1` (stereo not drawn), the cell number change was found to be 12.2%. On to `O=C(c1ccccc1)N1CCN(C2CC3CCC2C3)CC1` (stereo not drawn), for which the cell number change was -32.7%. Also, the AC50 under setting [1] is 3.26 µM [falling, full curve]. Under setting [2], the AC50 was 2.59 µM [falling, full curve]. Turning to `CCN(CCCNC(=O)Cn1ncc2c([nH]c3ccc(C)cc32)c1=O)Cc1ccccc1`, the cell number change is 18%. Moreover, the AC50 under setting [2] was 6.51 µM [rising, single point]. For `CCOC(=O)N1CCC(NC(=O)c2cc(C(=O)NCc3cccc(Cl)c3)ccc2CO)CC1`, the cell number change turned out to be 3.55%.

`CC(=O)[C@@]12O[C@@H]1C[C@H]1[C@@H]3CC[C@H]4C[C@@H](O)CC[C@]4(C)[C@H]3CC[C@@]12C`: the AC50 under setting [2] was 5.17 µM [falling, full curve, poor fit]. For the compound `COCCn1c(SCC(=O)Nc2cc(C)on2)nnc1-c1c[nH]c2ccccc12`, the cell number change is 10.5%. Further, under setting [2], the AC50 is 0.92 µM [rising, full curve, poor fit]. For `COc1cc(N)c(Cl)cc1C(=O)OCC(=O)N1CCc2ccccc21`, the cell number change was -0.0627%. The AC50 under setting [2] was 1.3 µM [rising, full curve]. As to `CCC1CCCCN1CCCNC(=O)Cn1ncc2c([nH]c3ccc(C)cc32)c1=O` (stereo not drawn), the cell number change is 37.2%. Moreover, under setting [1], the AC50 was 29.1 µM [rising, partial curve, poor fit]. In the case of `CCC1CCCCN1CCCNC(=O)c1ccc2c(=O)n(CCOC)c(=O)[nH]c2c1` (stereo not drawn), the cell number change turned out to be 12.5%. In addition, the AC50 under setting [2] is 0.00651 µM [falling, full curve, poor fit]. With `COc1ccccc1C(=O)NNC(=O)C1CC=CCC1` (stereo not drawn), the cell number change amounted to 4.46%. The concentration at half-maximal activity (AC50) under setting [2] is 29.1 µM [rising, single point]. As for `O=C(NC1CC1)c1ccc(CS(=O)c2ccccc2)o1` (stereo not drawn), the cell number change was found to be 21.3%. Besides, under setting [2], the AC50 was 0.291 µM [rising, full curve]. For the compound `Cc1ccccc1-c1nnc(NC(=O)c2ccc(N3C(=O)CCC3=O)cc2)s1`, the cell number change is -1.56%. The concentration at half-maximal activity (AC50) under setting [2] is 1.16 µM [rising, full curve, poor fit]. Turning to `O=C(NCCc1ccc(F)cc1)c1cc(=O)c2ccccc2o1`, the cell number change was -16.2%. Moreover, the half-maximal activity concentration (AC50) under setting [2] was 18.4 µM [falling, single point].

Turning to `O=[N+]([O-])c1ccc(-c2csc(N3CCc4ccccc4C3)n2)cc1`, the cell number change came out at 7.27%. Moreover, the AC50 under setting [2] is 8.2 µM [rising, partial curve, poor fit].

`Cc1nn(C(=O)c2cc([N+](=O)[O-])ccc2Cl)c(C)c1Br`: the AC50 under setting [2] was 0.164 µM [rising, full curve, poor fit]. For `COc1cccc(NC(=O)CN(C)C(=O)c2cc3c(s2)CCCCC3)c1`, the cell number change was 23.6%. Turning to `Cc1ccc(C)c(OCCN2C(=O)NC3(CCc4ccccc4C3)C2=O)c1` (stereo not drawn), the cell number change came out at 0.445%. In addition, the AC50 under setting [1] was 0.731 µM [rising, single point]. The AC50 under setting [2] was 18.4 µM [rising, single point].

In the case of `CCc1cc(C(=O)OC)c(NC(=O)c2cc(Br)cs2)s1`, the cell number change was -1.29%. In addition, the AC50 under setting [2] is 0.231 µM [rising, full curve, poor fit]. Turning to `Cc1n[nH]c(=O)c2ccccc12`, the cell number change was -8.14%. The AC50 under setting [2] is 0.00461 µM [falling, full curve, poor fit]. On to `CCc1nnc(NC(=O)CC(CN(C)S(=O)(=O)c2ccccc2)c2ccccc2)s1` (stereo not drawn), for which the cell number change is 22.5%. Besides, the AC50 under setting [1] is 2.31 µM [rising, full curve, poor fit].

Take `O=C(NNc1ncnc2c1cnn2-c1ccc(F)cc1)c1cccs1`: the cell number change amounted to 30.4%. In addition, the half-maximal activity concentration (AC50) under setting [2] is 29.1 µM [rising, single point]. Consider `O=C(N1CCCCC1)N1CCN(S(=O)(=O)c2ccccc2)CC1`, for which the cell number change came to 25.7%. Take `CC(=O)Nc1nnc(SCC(=O)NC2CC2)s1`: the cell number change came to 12.4%. Moreover, the AC50 under setting [2] was 32.6 µM [rising, single point]. Turning to `C/C(=N\S(=O)(=O)c1ccc(C)cc1)NC(=S)Nc1ccc(C)cc1`, the AC50 under setting [1] is 6.51 µM [falling, single point] and the AC50 under setting [2] was 5.17 µM [falling, single point].

Regarding `COc1cccc(-c2nn(-c3ccccc3)cc2CNC(C)Cn2cncn2)c1` (stereo not drawn), the cell number change stood at 12%. Also, under setting [2], the concentration at half-maximal activity (AC50) was 0.231 µM [falling, full curve, poor fit]. On to `Cc1ccc(N=Cc2c(C)[nH]n(-c3nc4ccccc4[nH]3)c2=O)cc1`, for which the cell number change is -30.4%. Also, the AC50 under setting [1] is 11.6 µM [falling, partial curve]. As for `COc1ccc(C)cc1NC(=O)c1ccc(NS(=O)(=O)c2c(C)noc2C)cc1`, the cell number change is -12.5%. For `COC(=O)[C@@]1(Cc2ccc(F)cc2)[C@H]2c3cc(C(=O)N(C)C)n(Cc4nc5ccccc5[nH]4)c3C[C@H]2CN1C(=O)c1ccccc1`, the cell number change was determined as 9.98%. Also, the AC50 under setting [1] is 0.411 µM [rising, single point]. Further, the AC50 under setting [2] is 0.326 µM [rising, partial curve, poor fit]. With `CC(Sc1nc(N)cc(=O)[nH]1)C(=O)Nc1sc2c(c1C#N)CCCC2` (stereo not drawn), the cell number change is -57.5%. Besides, the AC50 under setting [1] is 29.1 µM [falling, partial curve, poor fit]. The AC50 under setting [2] was 32.6 µM [falling, partial curve, poor fit].

As to `O=c1[nH]cc(I)cc1I`, the cell number change was -47.8%. Also, the AC50 under setting [1] is 29.1 µM [falling, single point]. Take `O=C(CSc1nnc(-c2ccccc2F)o1)NC(=O)Cc1ccccc1`: the cell number change was -41.4%. Further, the AC50 under setting [1] is 29.1 µM [falling, single point]. Moreover, under setting [2], the AC50 is 20.6 µM [falling, single point].
